Assay results as given in publication PMC5861098.
These are yes or no findings as the source states them, for the method shown. Binding seen in cells or lysates may run through a third protein. Binding can be weak; no strength is given.

Tests used:
Test in all cases: crystal structure; co-crystallization of 4 mg/mL purified Kl Dcp1–Dcp2(E152Q)–Edc3 (co-expressed, co-purified) with 1 mM Kl Edc1 peptide, 6 mM two-headed cap analog and 10 mM MgCl2; hanging drop, 4 °C; 2.84 Å, space group C2, two copies of the complex in the asymmetric unit; both purified
[1] = target: K. lactis Dcp2(1–275, E152Q) (K. lactis)
[2] = target: K. lactis Dcp1(1–188) (K. lactis)
[3] = target: K. lactis Dcp1(1–188)–Dcp2(1–275, E152Q)–Edc3(1–66) complex (K. lactis)

binding [1]: binds | binding [2]: binds | binding [3]: binds
Binder: HSKCYAGATFATEAPQVTTLPKPSFV (peptide, UniProt Q6CYC5 355-380) [Kl Edc1(355-380) peptide]
